PubChem BioAssay AID652272, Drosophila RNAi Screening Center, 2013
The deposit covers about 21,000 reagents; shown is an unselected part of those that have a named target and a result. Of all reagents, 503 (2.4%) were called active. 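Raw plate light values, not normalised; calls rest on replicate z-scores that were not deposited; hits include reporter decreases as well as increases.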 Not given: the amount of reagent, the time to read-out.

- Assay: 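Genes whose knock-down decreases or increases Hedgehog reporter output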 (primary screen)
- System: Drosophila clone 8 (Cl8) cells
- Reagents: long dsRNA against Drosophila genes
- Detection: 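Plate reader light from a firefly reporter under a ptc promoter fragment that responds to Hedgehog, with Renilla light as transfection reference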
- Reading the numbers: firefly Hh reporter signal: higher = more ptc reporter light; Renilla reference signal: higher = more Renilla control light
- Rule for the call: 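Hit when the z-score averaged over two replicates is under -2 or over +3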
- Calls: active = hit: reporter lowered or raised; inactive = not a hit

gene knocked down | DRSC id | firefly Hh reporter signal, replicate 1 | firefly Hh reporter signal, replicate 2 | firefly Hh reporter signal, replicate 3 | Renilla reference signal, replicate 1 | Renilla reference signal, replicate 2 | outcome
CG31145 (GeneID 42784) | DRSC13634 | 40167 | 1.73e5 | – | 9979 | 4025 | inactive
CG31145 (GeneID 42784) | DRSC14206 | 4.92e5 | 93568 | – | 29108 | 3308 | inactive
CG31145 (GeneID 42784) | DRSC14670 | 2.08e5 | 17559 | – | 15287 | 1040 | active
CG31145 (GeneID 42784) | DRSC14671 | 4.59e5 | 1.23e5 | – | 25969 | 3664 | inactive
dpr13 (GeneID 3885598) | DRSC06160 | 76797 | 73425 | – | 1993 | 5497 | inactive
dpr13 (GeneID 3885598) | DRSC06464 | 80944 | 82331 | – | 2154 | 5804 | inactive
Fum2 (GeneID 31606) | DRSC18345 | 79458 | 1.90e5 | – | 3559 | 9366 | inactive
CG3626 (GeneID 31377) | DRSC18318 | 83970 | 2.04e5 | – | 3232 | 7050 | inactive
Dbp21E2 (GeneID 33254) | DRSC00616 | 1.03e5 | 1.45e5 | – | 4432 | 5940 | inactive
Or74a (GeneID 39929) | DRSC11245 | 1.31e5 | – | – | 2145 | 3687 | inactive
thr (GeneID 37042) | DRSC07706 | 62531 | 32188 | – | 3289 | 1888 | inactive
SLO2 (GeneID 5740325) | DRSC06212 | 68323 | 15288 | – | 1991 | 1473 | inactive
SLO2 (GeneID 5740325) | DRSC06214 | 65121 | 50117 | – | 1261 | 3876 | inactive
SLO2 (GeneID 5740325) | DRSC06216 | 75735 | 53035 | – | 1336 | 4296 | inactive
SLO2 (GeneID 5740325) | DRSC06218 | 95298 | 63361 | – | 2194 | 4673 | inactive
SLO2 (GeneID 5740325) | DRSC06219 | 33552 | 26713 | – | 835 | 2124 | inactive
bip1 (GeneID 38891) | DRSC11327 | 82301 | 76160 | – | 4017 | 3264 | inactive
Klp98A (GeneID 43310) | DRSC16724 | 1.63e5 | 1.45e5 | – | 3203 | 3456 | inactive
CG5756 (GeneID 37064) | DRSC06950 | 57420 | 96938 | – | 1592 | 6293 | inactive
stwl (GeneID 39581) | DRSC11400 | 55372 | 37703 | – | 2518 | 1720 | inactive
l(3)72Dn (GeneID 39774) | DRSC10468 | 69828 | 59802 | – | 2826 | 2916 | inactive

Taken from above.
Entry for CG3626 (GeneID 31377) [DRSC18318] in “outcome”: inactive
Under “Renilla reference signal, replicate 2”, dpr13 (GeneID 3885598) [DRSC06464] is entered as 5804
SLO2 (GeneID 5740325) [DRSC06212], Renilla reference signal, replicate 2: 1473

The listing continues:
gene knocked down | DRSC id | firefly Hh reporter signal, replicate 1 | firefly Hh reporter signal, replicate 2 | firefly Hh reporter signal, replicate 3 | Renilla reference signal, replicate 1 | Renilla reference signal, replicate 2 | outcome
beat-IIb (GeneID 42082) | DRSC13219 | 47968 | 1.24e5 | – | 10461 | 3531 | inactive
beat-IIb (GeneID 42082) | DRSC14816 | 68802 | 97857 | – | 2512 | 4429 | inactive
beat-IIb (GeneID 42082) | DRSC15546 | 85640 | 1.45e5 | – | 2922 | 5971 | inactive
GMF (GeneID 34963) | DRSC01928 | 1.15e5 | 94746 | – | 5458 | 4116 | inactive
CecA2 (GeneID 43597) | DRSC16604 | 80023 | 1.15e5 | – | 2283 | 3339 | inactive
Su(fu) (GeneID 41565) | DRSC16871 | 2.00e5 | 1.19e5 | – | 5297 | 3117 | active
HP1D3csd (GeneID 32906) | DRSC19548 | 80112 | 1.87e5 | – | 3178 | 8129 | inactive
TwdlF (GeneID 40534) | DRSC12225 | 1.04e5 | 75405 | – | 4347 | 3255 | inactive
Atac1 (GeneID 33977) | DRSC03155 | 1.31e5 | 61676 | – | 3301 | 6760 | inactive
spz5 (GeneID 38350) | DRSC08645 | 1.44e5 | 86551 | – | 6004 | 3724 | inactive
Meltrin (GeneID 3772109) | DRSC16274 | 98176 | 95488 | – | 3435 | 3320 | inactive
gnu (GeneID 39615) | DRSC10497 | 93688 | 58451 | – | 3668 | 2188 | inactive
ATP6 (retired record) (GeneID 192467) | DRSC21278 | 73872 | 2.63e5 | – | 1529 | 10987 | inactive
CG5391 (GeneID 42611) | DRSC15790 | 9.10e5 | 2.65e5 | – | 47186 | 5846 | inactive
smal (GeneID 5740323) | DRSC02318 | 2.00e5 | 5.11e5 | 72450 | 4365 | 29835 | inactive
smal (GeneID 5740323) | DRSC02319 | 1.05e5 | 43050 | – | 2672 | 5733 | inactive
smal (GeneID 5740323) | DRSC02320 | 1.22e5 | 61888 | – | 3184 | 5601 | inactive
smal (GeneID 5740323) | DRSC02504 | 1.03e5 | 55506 | – | 3223 | 5592 | inactive
g (GeneID 44819) | DRSC20335 | 1.00e5 | 2.25e5 | – | 2986 | 8932 | inactive
CG6106 (GeneID 32816) | DRSC19971 | 90172 | 2.63e5 | – | 2624 | 10426 | inactive
Cda4 (GeneID 33144) | DRSC20623 | 1.02e5 | 2.23e5 | – | 3434 | 10065 | inactive
Cda4 (GeneID 33144) | DRSC20641 | 60056 | 1.60e5 | – | 1867 | 7164 | inactive
Cda4 (GeneID 33144) | DRSC20642 | 79729 | 2.43e5 | – | 3516 | 11123 | inactive
CG14332 (GeneID 42098) | DRSC14811 | 82139 | 89913 | – | 2390 | 2473 | inactive
Arr1 (GeneID 35078) | DRSC01867 | 93053 | 55889 | – | 2496 | 4549 | inactive
ppk20 (GeneID 43486) | DRSC16260 | 53564 | 81776 | – | 2164 | 2512 | inactive
CG1314 (GeneID 33066) | DRSC20495 | 1.25e5 | 1.33e5 | – | 3480 | 2928 | inactive
CG9512 (GeneID 32419) | DRSC20189 | 1.24e5 | 81511 | – | 2821 | 2347 | inactive
SLC5A11 (GeneID 34117) | DRSC03088 | 55816 | 40042 | – | 2551 | 1677 | inactive
PlexB (GeneID 43766) | DRSC17177 | 90822 | 2.14e5 | – | 2098 | 7703 | inactive
ush (GeneID 33225) | DRSC00843 | 95229 | 79252 | – | 5094 | 3911 | inactive
alph (GeneID 43481) | DRSC15398 | 1.15e5 | 82052 | – | 2593 | 2498 | inactive
Ssl (GeneID 37909) | DRSC04657 | 83469 | 48088 | – | 2144 | 4582 | inactive
ds (GeneID 33245) | DRSC00815 | 86210 | 66737 | – | 2112 | 1555 | inactive
SmydA-3 (GeneID 34502) | DRSC02565 | 1.12e5 | 60311 | – | 3028 | 4941 | inactive
SmydA-3 (GeneID 34502) | DRSC02566 | 73835 | 41579 | – | 2114 | 3579 | inactive
